No constants are given. Whether binding was seen depends on the method and setting. Some results given as binding are weak or reduced against the parent protein; the word gives no strength. Sequences can lack the tags named with a protein. Blank lines part the entries; values can stand above or below the binder they belong to.
Molecular target: T1, human TM4SF1 (transmembrane-4 L six family member-1) (human) (UniProt P30408)
T1 sequence: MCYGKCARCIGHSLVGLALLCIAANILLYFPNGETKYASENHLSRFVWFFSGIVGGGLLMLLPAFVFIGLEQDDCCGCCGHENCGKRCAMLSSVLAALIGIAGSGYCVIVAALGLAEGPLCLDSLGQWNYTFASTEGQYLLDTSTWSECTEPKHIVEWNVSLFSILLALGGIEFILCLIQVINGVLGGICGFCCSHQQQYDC
Assay: cell-based flow cytometry on HUVEC cells

binding: binds
B1: AGX-A07 antibody without Fc region mutations (antibody, V domains shown)
VH: QIQLVQSGPELKKPGETVKISCKASGYTFTNYGVKWVKQAPGKDLKWMGWINTYTGNPIYAADFKGRFAFSLETSASTAFLQINNLKNEDTATYFCVRFQYGDYRYFDVWGAGTTVTVSS
VL: QIILSQSPAILSASPGEKVTMTCRANSGISFINWYQQKPGSSPKPWIYGTANLASGVPARFGGSGSGTSYSLTISRVEAEDAATYYCQQWSSNPLTFGAGTKLELR

binding: binds
B2: AGX-A07 variant comprising N297C in combination with the mutations M252Y, S254T, and T256E (the "YTEC" variant) (antibody, V domains shown)
VH: B1 VH
VL: B1 VL

binding: binds
B3: AGX-A07 variant comprising Fc region mutation N297C (the "C" variant) (antibody, V domains shown)
VH: B1 VH
VL: B1 VL
